Data as given in PubChem BioAssay AID504774 (Drosophila RNAi Screening Center, 2011).
Test: 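Fly genes whose loss alters survival after alkylation damage to DNA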 (primary screen). Cell system: Drosophila Kc167 cells. Knock-down reagent: long dsRNA against Drosophila genes, about 0.25 µg dsRNA per well. Timing: about 6 days: 3 days knock-down, then 3 days with or without MMS. Conditions: methyl methanesulphonate 0.004% (w/v) for 3 days after knock-down. Read-out: 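ATP-dependent luminescence as a measure of live cells in MMS-exposed wells, quantile normalised within each plate, with replicate values also given as a mean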. Scale: mean viability with MMS and viability with MMS: higher = more surviving cells after MMS.
The deposit covers about 23,000 reagents; shown is an unselected part of those that have a named target and a result. 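Values are quantile-normalised luminescence on an arbitrary scale; higher means more cells surviving MMS.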 A plus sign joins genes that one reagent is predicted to hit. Not all columns of the deposit are shown. No sequences are given here.

gene | dsRNA | mean viability with MMS | viability with MMS, replicate 1
CG12237 | DRSC19449 | 3.61e6 | 3.90e6
CG12237 | DRSC22256 | 3.56e6 | 4.04e6
Ccp84Ab | DRSC12587 | 3.52e6 | 4.01e6
CG3690 | DRSC18170 | 3.71e6 | 4.22e6
CG3690 | DRSC18641 | 3.68e6 | 4.11e6
Pdp | DRSC17825 | 3.57e6 | 4.08e6
CG13884 | DRSC08354 | 3.41e6 | 3.88e6
CG11634 | DRSC03700 | 3.56e6 | 4.06e6
Polr2F | DRSC12366 | 2.99e6 | 3.63e6
Rsph1 | DRSC02864 | 3.44e6 | 3.92e6
CG42808 + CG42807 | DRSC06370 | 3.61e6 | 4.12e6
CG42808 + CG42807 | DRSC06966 | 3.58e6 | 4.17e6
CG5543 | DRSC04511 | 3.39e6 | 3.94e6
kappaB-Ras + CG30503 | DRSC06619 | 3.51e6 | 3.98e6
kappaB-Ras + CG30503 | DRSC07636 | 3.55e6 | 3.91e6
CycD | DRSC20233 | 3.53e6 | 4.05e6
kairos | DRSC19972 | 3.78e6 | 4.29e6
kairos | DRSC23286 | 3.84e6 | 4.26e6
DNAlig3 | DRSC15201 | 3.55e6 | 4.06e6
CG10660 | DRSC09769 | 3.16e6 | 3.52e6
CG4650 | DRSC02767 | 3.47e6 | 3.96e6
CG11841 | DRSC14399 | 3.56e6 | 4.06e6
GABA-B-R3 | DRSC00561 | 3.56e6 | 4.10e6
CG18744 | DRSC15381 | 3.56e6 | 4.04e6
Hpf1 | DRSC12202 | 3.74e6 | 4.30e6
CG15141 | DRSC02441 | 3.36e6 | 3.83e6
CG15141 | DRSC02442 | 3.59e6 | 3.84e6
Ass + CG31286 | DRSC12493 | 3.56e6 | 4.10e6
Qtzl | DRSC01221 | 3.40e6 | 3.80e6
CG12784 | DRSC14539 | 3.59e6 | 4.15e6
CG34163 | DRSC01219 | 3.41e6 | 3.79e6
RpS17 | DRSC11271 | 3.16e6 | 3.56e6
Mkk4 | DRSC16739 | 3.57e6 | 4.02e6
Cbp53E | DRSC07356 | 3.44e6 | 3.91e6
CG13071 | DRSC09954 | 3.57e6 | 4.03e6
CG6574 | DRSC16070 | 3.46e6 | 3.97e6
vrs | DRSC15832 | 3.50e6 | 3.90e6
CG13060 | DRSC09943 | 3.58e6 | 4.01e6
Peritrophin-15b | DRSC02266 | 3.69e6 | 4.31e6
CG14958 | DRSC08417 | 3.44e6 | 3.89e6
Npc2a | DRSC00698 | 3.45e6 | 3.90e6
Uros1 | DRSC18191 | 3.68e6 | 3.99e6
CG42269 | DRSC10670 | 3.60e6 | 4.06e6
CG42269 | DRSC10672 | 3.92e6 | 4.60e6
Nedd8 | DRSC02092 | 3.43e6 | 3.84e6
alphaTry | DRSC07577 | 3.82e6 | 4.71e6
l(2)k01209 | DRSC06889 | 3.66e6 | 4.13e6
robo3 | DRSC00374 | 3.57e6 | 4.02e6
robo3 | DRSC00375 | 3.24e6 | 3.62e6
robo3 | DRSC00684 | 3.51e6 | 4.01e6
Jwa | DRSC02048 | 3.69e6 | 4.01e6
GstE13 | DRSC06083 | 3.39e6 | 3.73e6
CG13040 | DRSC09921 | 3.52e6 | 4.00e6
CG6978 | DRSC18409 | 3.66e6 | 4.12e6
rec | DRSC14998 | 3.57e6 | 4.18e6
rec | DRSC15656 | 3.59e6 | 4.04e6
Elba1 | DRSC00276 | 3.69e6 | 4.09e6
Der-2 | DRSC15021 | 3.28e6 | 3.65e6

Next part, starting with the last 8 of the part before.
gene | dsRNA | mean viability with MMS | viability with MMS, replicate 1
Jwa | DRSC02048 | 3.69e6 | 4.01e6
GstE13 | DRSC06083 | 3.39e6 | 3.73e6
CG13040 | DRSC09921 | 3.52e6 | 4.00e6
CG6978 | DRSC18409 | 3.66e6 | 4.12e6
rec | DRSC14998 | 3.57e6 | 4.18e6
rec | DRSC15656 | 3.59e6 | 4.04e6
Elba1 | DRSC00276 | 3.69e6 | 4.09e6
Der-2 | DRSC15021 | 3.28e6 | 3.65e6
CheB53b | DRSC05613 | 3.56e6 | 4.06e6
Strn-Mlck | DRSC05032 | 3.61e6 | 4.11e6
Strn-Mlck | DRSC05598 | 3.49e6 | 3.95e6
Strn-Mlck | DRSC07471 | 3.51e6 | 3.93e6
CG7309 | DRSC03045 | 3.75e6 | 3.90e6
Sys1 | DRSC14372 | 3.70e6 | 4.11e6
cid | DRSC05429 | 3.59e6 | 3.99e6
cid | DRSC07592 | 3.62e6 | 4.14e6
Csp | DRSC11860 | 3.66e6 | 4.05e6
CG14196 | DRSC19551 | 3.61e6 | 4.16e6
myo | DRSC17174 | 3.59e6 | 4.17e6
CG17742 (retired record) | DRSC10285 | 2.92e6 | 3.50e6
Naa40 | DRSC16265 | 3.69e6 | 4.24e6
DCTN1-p150 | DRSC11175 | 3.44e6 | 3.76e6
nab | DRSC08455 | 3.87e6 | 4.28e6
nab | DRSC08456 | 3.48e6 | 3.90e6
FASN3 | DRSC20882 | 3.50e6 | 3.98e6
egh | DRSC18771 | 4.03e6 | 4.82e6
Herp | DRSC02394 | 3.56e6 | 4.08e6
CG2533 | DRSC19855 | 3.79e6 | 4.17e6
CG10730 | DRSC02102 | 3.54e6 | 3.95e6
CG34281 | DRSC14807 | 3.22e6 | 3.59e6
zen | DRSC12632 | 3.65e6 | 4.21e6
CG9467 | DRSC16498 | 3.51e6 | 3.98e6
Or30a | DRSC03385 | 3.62e6 | 4.11e6
CG32811 | DRSC22649 | 3.60e6 | 4.05e6
CG13126 | DRSC02222 | 3.41e6 | 3.78e6
CG10555 | DRSC17748 | 3.42e6 | 3.88e6
CG10555 | DRSC23202 | 3.78e6 | 4.26e6
